Test results reported in publication PMC5701936.
These are yes or no findings as the source states them, for the method shown. Binding seen in cells or lysates may run through a third protein. Where a sequence is shown, tags or fusion partners need not be part of it.

Target: Glutathione-S-Transferase (GST)
Experiment: pull-down; co-precipitation of purified His6-SKD1 with GST-SPI-PBW-His6 or GST on resin; proteins dialyzed against Tris-Elution Buffer (100 mM Tris pH 8.0, 150 mM NaCl); detection with anti-His6 antibody; both purified

binding: no binding
B1: His6-SKD1 (protein, UniProt Q9ZNT0 1-435)
chain: MYSNFKEQAIEYVKQAVHEDNAGNYNKAFPLYMNALEYFKTHLKYEKNPKIREAITQKFTEYLRRAEEIRAVLDEGGSGPGSNGDAAVATRPKTKPKDGEGGGKDGEDPEQSKLRAGLNSAIVREKPNIKWSDVAGLESAKQALQEAVILPVKFPQFFTGKRRPWRAFLLYGPPGTGKSYLAKAVATEADSTFFSVSSSDLVSKWMGESEKLVSNLFEMARESAPSIIFVDEIDSLCGTRGEGNESEASRRIKTELLVQMQGVGHNDEKVLVLAATNTPYALDQAIRRRFDKRIYIPLPEAKARQHMFKVHLGDTPHNLTEPDFEYLGQKTEGFSGSDVSVCVKDVLFEPVRKTQDAMFFFKSPDGTWMPCGPRHPGAIQTTMQDLATKGLAEKIIPPPITRTDFEKVLARQRPTVSKSDLDVHERFTQEFGEEG
